Some entries share one result that the patent states for a list of compounds. For some assays here: At least one compound was matched to its structure with a doubt left.
Tests used:
Type in all cases: in vivo
[1] = tested on: Spodoptera littoralis (Egyptian Cotton Leafworm); experiment: Spodoptera littoralis leaf disc spray test; conditions: 200 ppm spray on cotton leaf discs; mortality, feeding behavior, growth regulation 3 days after treatment
Experimental: This Example illustrates the insecticidal and acaricidal properties of compounds of formula (I). Tests were performed as follows:

[2] = tested on: Heliothis virescens (Tobacco Budworm); experiment: Heliothis virescens egg test on artificial diet; conditions: 200 ppm (concentration in well 18 ppm), eggs 0-24 h old on artificial diet; egg mortality, larval mortality, growth regulation after 4 days
Description: (§1) This Example illustrates the insecticidal and acaricidal properties of compounds of formula (I).

[3] = tested on: Plutella xylostella (Diamond Back Moth); experiment: Plutella xylostella larval test on artificial diet; conditions: 200 ppm (concentration in well 18 ppm), L2 larvae, larval mortality and growth regulation after 6 days
Description: as §1

[4] = tested on: Diabrotica balteata (Corn Root Worm); experiment: Diabrotica balteata larval test on artificial diet; conditions: 200 ppm (concentration in well 18 ppm), L2 larvae, larval mortality and growth regulation after 5 days
Description: as §1

[5] = tested on: Thrips tabaci (Onion Thrips); experiment: Thrips tabaci leaf disc spray test; conditions: 200 ppm spray on sunflower leaf discs, mixed ages; mortality after 7 days
Description: as §1

[6] = tested on: Tetranychus urticae (Two-Spotted Spider Mite); experiment: Tetranychus urticae leaf disc spray test; conditions: 200 ppm spray on bean leaf discs, mixed ages; egg, larval and adult mortality 8 days later
Description: as §1

[7] = tested on: Myzus persicae (Green Peach Aphid); experiment: Myzus persicae sachet test, mixed population; conditions: 12.5 ppm in sucrose solution (sachet), mortality 5 days after infestation
[8] = tested on: Nilaparvata lugens (Brown Plant Hopper); experiment: Nilaparvata lugens larvicide, feeding/contact on rice seedlings; conditions: 200 ppm spray on rice seedlings, N3 nymphs; mortality 6-12 days after treatment
[9] = tested on: Euschistus heros (Neotropical Brown Stink Bug); experiment: Euschistus heros contact/feeding activity on soybean plants; conditions: 50 ppm spray on 2 week old soybean plants, N-2 nymphs; mortality and growth effect 5 days after infestation
[10] = tested on: Anthonomus grandis (Cotton Boll Weevil); experiment: Anthonomus grandis adulticide, feeding/contact on cotton plants; conditions: 50 ppm spray on cotton plants, adult weevils; mortality 5 days after treatment

Cc1cc(C2=NOC(c3cc(F)cc(Cl)c3)(C(F)(F)F)C2)ccc1C(=O)NC1CSC1 (centres unmarked) [Compound A027]
at least 80%: control of Spodoptera littoralis [1] | control of Heliothis virescens [2] | control of Plutella xylostella [3] | control of Diabrotica balteata [4] | control of Thrips tabaci [5] | control of Tetranychus urticae [6] | control of Myzus persicae [7] | control of Nilaparvata lugens [8]

Cc1cc(C2=NOC(c3cc(Cl)cc(Cl)c3)(C(F)(F)Cl)C2)ccc1C(=O)NC1C[S+]([O-])C1 (centres unmarked) [Compound A190]
at least 80%: control of Spodoptera littoralis [1] | control of Heliothis virescens [2] | control of Plutella xylostella [3] | control of Diabrotica balteata [4] | control of Thrips tabaci [5] | control of Tetranychus urticae [6] | control of Myzus persicae [7]

Cc1cc(C2=NOC(c3cccc(C(F)(F)F)c3)(C(F)(F)F)C2)ccc1C(=O)NC1CSC1 (centres unmarked) [Compound A004]
at least 80%: control of Spodoptera littoralis [1] | control of Heliothis virescens [2] | control of Plutella xylostella [3] | control of Diabrotica balteata [4] | control of Thrips tabaci [5] | control of Tetranychus urticae [6] | control of Myzus persicae [7]

Cc1cc(C2=NO[C@@](c3cc(Cl)cc(Cl)c3)(C(F)(F)F)C2)ccc1C(=O)NCC1CS(=O)(=O)C1 [Compound C20, 4-[(5S)-5-(3,5-dichlorophenyl)-5-(trifluoromethyl)-4H-isoxazol-3-yl]-N-[(1,1-dioxothietan-3-yl)methyl]-2-methyl-benzamide]
at least 80%: control of Myzus persicae [7] | control of Euschistus heros [9] | control of Nilaparvata lugens [8] | control of Anthonomus grandis [10]

Cc1cc(C2=NOC(c3cc(F)cc(Cl)c3)(C(F)(F)F)C2)ccc1C(=O)NC1C[S+]([O-])C1 (centres unmarked) [Compound A026]
at least 80%: control of Spodoptera littoralis [1] | control of Heliothis virescens [2] | control of Plutella xylostella [3] | control of Diabrotica balteata [4] | control of Thrips tabaci [5] | control of Tetranychus urticae [6] | control of Myzus persicae [7] | control of Nilaparvata lugens [8]

Cc1cc(C2=NO[C@@](c3cc(Cl)cc(Cl)c3)(C(F)(F)F)C2)cnc1C(=O)N[C@H]1C[S@@+]([O-])C1 [Compound C16, 5-[(5S)-5-(3,5-dichlorophenyl)-5-(trifluoromethyl)-4H-isoxazol-3-yl]-3-methyl-N-(1-oxidothietan-1-ium-3-yl)pyridine-2-carboxamide]
at least 80%: control of Myzus persicae [7] | control of Euschistus heros [9] | control of Anthonomus grandis [10]

Cc1cc(C2=NOC(c3cc(Cl)cc(Cl)c3)(C(F)(F)F)C2)ccc1C(=O)NCC1CS(=O)(=O)C1 (centres unmarked) [Compound A132, 4-[5-(3,5-dichlorophenyl)-5-(trifluoromethyl)-4H-isoxazol-3-yl]-2-methyl-N-(1.1-dioxo-thietan-3-ylmethyl)benzamide]
at least 80%: control of Myzus persicae [7]

Cc1cc(C2=NOC(c3ccc(Cl)c(Cl)c3)(C(F)(F)F)C2)ccc1C(=O)NC1C[S+]([O-])C1 (centres unmarked) [Compound A038]
at least 80%: control of Spodoptera littoralis [1] | control of Heliothis virescens [2] | control of Plutella xylostella [3] | control of Diabrotica balteata [4] | control of Thrips tabaci [5] | control of Tetranychus urticae [6] | control of Myzus persicae [7] | control of Nilaparvata lugens [8]

Cc1cc(C2=NOC(c3cccc(C(F)(F)F)c3)(C(F)(F)F)C2)ccc1C(=O)NC1(C)CSC1 (centres unmarked) [Compound A003]
at least 80%: control of Spodoptera littoralis [1] | control of Heliothis virescens [2] | control of Plutella xylostella [3] | control of Diabrotica balteata [4] | control of Thrips tabaci [5] | control of Tetranychus urticae [6]

Cc1cc(C2=NOC(c3cc(Cl)cc(-c4cc(F)cc(F)c4)c3)(C(F)(F)F)C2)ccc1C(=O)NC1C[S+]([O-])C1 (centres unmarked) [Compound A114]
at least 80%: control of Spodoptera littoralis [1] | control of Heliothis virescens [2] | control of Plutella xylostella [3] | control of Diabrotica balteata [4] | control of Thrips tabaci [5] | control of Tetranychus urticae [6]

Cc1cc(C2=NOC(c3cc(Cl)cc(-c4cccc(Cl)c4F)c3)(C(F)(F)F)C2)ccc1C(=O)NC1C[S+]([O-])C1 (centres unmarked) [Compound A117]
at least 80%: control of Spodoptera littoralis [1] | control of Heliothis virescens [2] | control of Plutella xylostella [3] | control of Diabrotica balteata [4] | control of Thrips tabaci [5] | control of Tetranychus urticae [6]

Cc1cc(C2=NOC(c3cc(Cl)cc(Br)c3)(C(F)(F)F)C2)ccc1C(=O)NC1CS(=O)(=O)C1 (centres unmarked) [Compound A078]
at least 80%: control of Spodoptera littoralis [1] | control of Heliothis virescens [2] | control of Plutella xylostella [3] | control of Diabrotica balteata [4] | control of Thrips tabaci [5] | control of Tetranychus urticae [6]

Cc1cc(C2=NOC(c3ccc(F)c(Cl)c3)(C(F)(F)F)C2)ccc1C(=O)NC1CS(=O)(=O)C1 (centres unmarked) [Compound A028]
at least 80%: control of Spodoptera littoralis [1] | control of Heliothis virescens [2] | control of Plutella xylostella [3] | control of Diabrotica balteata [4] | control of Thrips tabaci [5] | control of Tetranychus urticae [6]

Cc1cc(C2=NOC(c3ccc(Cl)c(Cl)c3)(C(F)(F)F)C2)ccc1C(=O)NC1(C)CSC1 (centres unmarked) [Compound A037]
at least 80%: control of Spodoptera littoralis [1] | control of Heliothis virescens [2] | control of Plutella xylostella [3] | control of Diabrotica balteata [4] | control of Thrips tabaci [5] | control of Tetranychus urticae [6]

Cc1cc(C2=NOC(c3cc(Cl)cc(Br)c3)(C(F)(F)F)C2)ccc1C(=O)NC1C[S+]([O-])C1 (centres unmarked) [Compound A080]
at least 80%: control of Spodoptera littoralis [1] | control of Heliothis virescens [2] | control of Plutella xylostella [3] | control of Diabrotica balteata [4] | control of Thrips tabaci [5] | control of Tetranychus urticae [6] | control of Myzus persicae [7] | control of Nilaparvata lugens [8]

Cc1cc(C2=NOC(c3cc(Cl)cc(Cl)c3)(C(F)(F)Cl)C2)ccc1C(=O)NC1CS(=O)(=O)C1 (centres unmarked) [Compound A188]
at least 80%: control of Spodoptera littoralis [1] | control of Heliothis virescens [2] | control of Plutella xylostella [3] | control of Diabrotica balteata [4] | control of Thrips tabaci [5] | control of Tetranychus urticae [6] | control of Myzus persicae [7] | control of Euschistus heros [9]

Cc1cc(C2=NOC(c3cc(Cl)cc(Cl)c3)(C3CC3)C2)ccc1C(=O)NC1C[S+]([O-])C1 (centres unmarked) [Compound A014]
at least 80%: control of Spodoptera littoralis [1] | control of Heliothis virescens [2] | control of Plutella xylostella [3] | control of Diabrotica balteata [4] | control of Thrips tabaci [5] | control of Tetranychus urticae [6]

Cc1cc(C2=NOC(c3cc(Cl)cc(-c4ccc5[nH]ccc5c4)c3)(C(F)(F)F)C2)ccc1C(=O)NC1C[S+]([O-])C1 (centres unmarked) [Compound A105]
at least 80%: control of Spodoptera littoralis [1] | control of Heliothis virescens [2] | control of Plutella xylostella [3] | control of Diabrotica balteata [4] | control of Thrips tabaci [5] | control of Tetranychus urticae [6]

Cc1cc(C2=NOC(c3ccc(F)c(Cl)c3)(C(F)(F)F)C2)ccc1C(=O)NC1C[S+]([O-])C1 (centres unmarked) [Compound A030]
at least 80%: control of Spodoptera littoralis [1] | control of Heliothis virescens [2] | control of Plutella xylostella [3] | control of Diabrotica balteata [4] | control of Thrips tabaci [5] | control of Tetranychus urticae [6]

Cc1cc(C2=NOC(c3ccc(OC(F)(F)F)cc3)(C(F)(F)F)C2)ccc1C(=O)NC1CSC1 (centres unmarked) [Compound A058]
at least 80%: control of Spodoptera littoralis [1] | control of Heliothis virescens [2] | control of Plutella xylostella [3] | control of Diabrotica balteata [4] | control of Thrips tabaci [5] | control of Tetranychus urticae [6]
